# Assay results as given in paper PMC4476799, “Englerin A Agonizes the TRPC4/C5 Cation Channels to Inhibit Tumor Cell Line Proliferation” (PLoS ONE, 2015).
# This continues a long series; more values of the same kind are listed elsewhere.
# Tested on: cancer cell lines from the cancer cell line encyclopedia (CCLE)
# Test: Cell line profiling (CLiP) proliferation experiment
# Type: cell-based
# Parameters: ACTIVITY_AREA: scale not given here; AMAX: unit not given here
# Experimental: Compound profiling experiment and data analysis was performed as previously described. Data was imported and plotted using the Tibco Spotfire DXP application. Lines were categorized as sensitive, intermediate and refractory as follows: Amax<-40 & Inflection Point <2 ~ Sensitive, Amax>-20 & Inflection Point >10 ~ Refractory, all else were called Intermediate. Cancer Cell line HG-U133 Plus 2 data was processed and normalized as described. […] Five sets of refractory cell lines were generated from the pool of refractory cell lines trying to match the lineage composition of the set of sensitive cell lines. The limma package was used as previously described to perform the statistical comparison.
# [1] = NCI-H196, lung, small_cell_carcinoma
# [2] = NCI-H226, lung, squamous_cell_carcinoma
# [3] = NCI-H358, lung, bronchioloalveolar_adenocarcinoma
# [4] = NCI-H460, lung, large_cell_carcinoma
# [5] = NCI-H520, lung, squamous_cell_carcinoma
# [6] = NCI-H596, lung, mixed_adenosquamous_carcinoma
# [7] = NCI-H647, lung, mixed_adenosquamous_carcinoma
# [8] = NCI-H650, lung, bronchioloalveolar_adenocarcinoma
# [9] = NCI-H661, lung, large_cell_carcinoma
# [10] = NCI-H716, large_intestine, adenocarcinoma
# [11] = NCI-H810, lung, large_cell_carcinoma
# [12] = NCI-H841, lung, small_cell_carcinoma
# [13] = NCI-H1792, lung, adenocarcinoma
# [14] = NCI-H1793, lung, adenocarcinoma
# [15] = NCI-H1869, lung, squamous_cell_carcinoma
# [16] = NCI-H1944, lung, adenocarcinoma
# [17] = NCI-H1975, lung, adenocarcinoma
# [18] = NCI-H2023, lung, adenocarcinoma
# [19] = NCI-H2073, lung, adenocarcinoma
# [20] = NCI-H2106, lung, non_small_cell_carcinoma
# [21] = NCI-H2122, lung, adenocarcinoma
# [22] = NCI-H2126, lung, adenocarcinoma
# [23] = NCI-H2170, lung, squamous_cell_carcinoma
# [24] = NCI-H2172, lung, non_small_cell_carcinoma
# [25] = NCI-H2330, lung, small_cell_carcinoma
# [26] = NCI-H2405, lung, adenocarcinoma
# [27] = NCI-H3255, lung, adenocarcinoma
# [28] = NUGC-4, stomach, signet_ring_adenocarcinoma
# [29] = OC 314, ovary, serous_carcinoma
# [30] = OCI-AML2, haematopoietic_and_lymphoid_tissue, acute_myeloid_leukaemia
structure (smiles),measurement,setting,value
CC(C)[C@@]12C[C@@H](O)[C@@](C)(O1)[C@@H]1CC[C@@H](C)[C@H]1[C@@H]2OC(=O)/C=C/c1ccccc1 [Englerin B],AMAX,NCI-H146 cells,-5.12
same,RESPONSE,NCI-H146 cells,REFRACTORY
same,ACTIVITY_AREA,[1],25.48
same,AMAX,[1],-3.26
same,RESPONSE,[1],REFRACTORY
same,ACTIVITY_AREA,[2],84.84
same,AMAX,[2],-41.44
same,RESPONSE,[2],INTERMEDIATE
same,ACTIVITY_AREA,[3],28.35
same,AMAX,[3],-65.38
same,RESPONSE,[3],INTERMEDIATE
same,ACTIVITY_AREA,"NCI-H441, lung, adenocarcinoma",12.16
same,AMAX,"NCI-H441, lung, adenocarcinoma",-29.95
same,RESPONSE,"NCI-H441, lung, adenocarcinoma",INTERMEDIATE
same,ACTIVITY_AREA,[4],22.87
same,AMAX,[4],-32.1
same,RESPONSE,[4],INTERMEDIATE
same,ACTIVITY_AREA,[5],15.26
same,AMAX,[5],-40.14
same,RESPONSE,[5],INTERMEDIATE
same,ACTIVITY_AREA,NCI-H520 cells,15.26
same,AMAX,NCI-H520 cells,-40.14
same,RESPONSE,NCI-H520 cells,INTERMEDIATE
same,ACTIVITY_AREA,[6],29.87
same,AMAX,[6],-8.32
same,RESPONSE,[6],REFRACTORY
same,ACTIVITY_AREA,NCI-H596 cells,29.87
same,AMAX,NCI-H596 cells,-8.32
same,RESPONSE,NCI-H596 cells,REFRACTORY
same,ACTIVITY_AREA,[7],65.46
same,AMAX,[7],-63.95
same,RESPONSE,[7],INTERMEDIATE
same,ACTIVITY_AREA,[8],45.05
same,AMAX,[8],-79.38
same,RESPONSE,[8],INTERMEDIATE
same,ACTIVITY_AREA,NCI-H650 cells,45.05
same,AMAX,NCI-H650 cells,-79.38
same,RESPONSE,NCI-H650 cells,INTERMEDIATE
same,ACTIVITY_AREA,[9],26.82
same,AMAX,[9],-36.56
same,RESPONSE,[9],INTERMEDIATE
same,ACTIVITY_AREA,NCI-H661 cells,26.82
same,AMAX,NCI-H661 cells,-36.56
same,RESPONSE,NCI-H661 cells,INTERMEDIATE
same,ACTIVITY_AREA,[10],14.18
same,AMAX,[10],-50.31
same,RESPONSE,[10],INTERMEDIATE
same,ACTIVITY_AREA,NCI-H716 cells,14.18
same,AMAX,NCI-H716 cells,-50.31
same,RESPONSE,NCI-H716 cells,INTERMEDIATE
same,ACTIVITY_AREA,"NCI-H727, lung, NS",5.2
same,AMAX,"NCI-H727, lung, NS",5.53
same,RESPONSE,"NCI-H727, lung, NS",REFRACTORY
same,ACTIVITY_AREA,[11],14.12
same,AMAX,[11],-56.53
same,RESPONSE,[11],INTERMEDIATE
same,ACTIVITY_AREA,"NCI-H838, lung, adenocarcinoma",25.71
same,AMAX,"NCI-H838, lung, adenocarcinoma",-49.02
same,RESPONSE,"NCI-H838, lung, adenocarcinoma",INTERMEDIATE
same,ACTIVITY_AREA,NCI-H838 cells,25.71
same,AMAX,NCI-H838 cells,-49.02
same,RESPONSE,NCI-H838 cells,INTERMEDIATE
same,ACTIVITY_AREA,[12],38.09
same,AMAX,[12],-87.59
same,RESPONSE,[12],INTERMEDIATE
same,ACTIVITY_AREA,NCI-H1437 cells,17.29
same,AMAX,NCI-H1437 cells,-45.72
same,RESPONSE,NCI-H1437 cells,INTERMEDIATE
same,ACTIVITY_AREA,NCI-H1573 cells,188.17
same,AMAX,NCI-H1573 cells,-69.31
same,RESPONSE,NCI-H1573 cells,INTERMEDIATE
same,ACTIVITY_AREA,NCI-H1581 cells,35.15
same,AMAX,NCI-H1581 cells,-92.8
same,RESPONSE,NCI-H1581 cells,INTERMEDIATE
same,ACTIVITY_AREA,NCI-H1650 (lung),37.78
same,AMAX,NCI-H1650 (lung),-54.12
same,RESPONSE,NCI-H1650 (lung),INTERMEDIATE
same,ACTIVITY_AREA,NCI-H1651 cells,18.25
same,AMAX,NCI-H1651 cells,-33.21
same,RESPONSE,NCI-H1651 cells,INTERMEDIATE
same,ACTIVITY_AREA,[13],40.56
same,AMAX,[13],-58.43
same,RESPONSE,[13],INTERMEDIATE
same,ACTIVITY_AREA,[14],61.94
same,AMAX,[14],-45.66
same,RESPONSE,[14],INTERMEDIATE
same,ACTIVITY_AREA,[15],89.5
same,AMAX,[15],-43.09
same,RESPONSE,[15],INTERMEDIATE
same,ACTIVITY_AREA,NCI-H1869 cells,89.5
same,AMAX,NCI-H1869 cells,-43.09
same,RESPONSE,NCI-H1869 cells,INTERMEDIATE
same,ACTIVITY_AREA,[16],49.5
same,AMAX,[16],-75.02
same,RESPONSE,[16],INTERMEDIATE
same,ACTIVITY_AREA,[17],14.51
same,AMAX,[17],-27.94
same,RESPONSE,[17],INTERMEDIATE
same,ACTIVITY_AREA,NCI-H1975 cells,14.51
same,AMAX,NCI-H1975 cells,-27.94
same,RESPONSE,NCI-H1975 cells,INTERMEDIATE
same,ACTIVITY_AREA,[18],80.88
same,AMAX,[18],-75.61
same,RESPONSE,[18],INTERMEDIATE
same,ACTIVITY_AREA,[19],37.97
same,AMAX,[19],-56.11
same,RESPONSE,[19],INTERMEDIATE
same,ACTIVITY_AREA,[20],11.07
same,AMAX,[20],-48.52
same,RESPONSE,[20],INTERMEDIATE
same,ACTIVITY_AREA,[21],59.74
same,AMAX,[21],-36.73
same,RESPONSE,[21],INTERMEDIATE
same,ACTIVITY_AREA,[22],14.2
same,AMAX,[22],-49.33
same,RESPONSE,[22],INTERMEDIATE
same,ACTIVITY_AREA,NCI-H2126 cells,14.2
same,AMAX,NCI-H2126 cells,-49.33
same,RESPONSE,NCI-H2126 cells,INTERMEDIATE
same,ACTIVITY_AREA,[23],17.29
same,AMAX,[23],-44.7
same,RESPONSE,[23],INTERMEDIATE
same,ACTIVITY_AREA,[24],44.13
same,AMAX,[24],-55.3
same,RESPONSE,[24],INTERMEDIATE
same,ACTIVITY_AREA,[25],44.98
same,AMAX,[25],-45.58
same,RESPONSE,[25],INTERMEDIATE
same,ACTIVITY_AREA,[26],32.39
same,AMAX,[26],-42.88
same,RESPONSE,[26],INTERMEDIATE
same,ACTIVITY_AREA,"NCI-H2452, pleura, NS",32.7
same,AMAX,"NCI-H2452, pleura, NS",-2.13
same,RESPONSE,"NCI-H2452, pleura, NS",REFRACTORY
same,ACTIVITY_AREA,[27],13.21
same,AMAX,[27],-56.75
same,RESPONSE,[27],INTERMEDIATE
same,ACTIVITY_AREA,NCI-H3255 cells,13.21
same,AMAX,NCI-H3255 cells,-56.75
same,RESPONSE,NCI-H3255 cells,INTERMEDIATE
same,ACTIVITY_AREA,"NUGC-3, stomach, NS",62.26
same,AMAX,"NUGC-3, stomach, NS",-47.92
same,RESPONSE,"NUGC-3, stomach, NS",INTERMEDIATE
same,ACTIVITY_AREA,NUGC-3 cells,62.26
same,AMAX,NUGC-3 cells,-47.92
same,RESPONSE,NUGC-3 cells,INTERMEDIATE
same,ACTIVITY_AREA,[28],16.21
same,AMAX,[28],-60.16
same,RESPONSE,[28],INTERMEDIATE
same,ACTIVITY_AREA,NUGC-4 cells,16.21
same,AMAX,NUGC-4 cells,-60.16
same,RESPONSE,NUGC-4 cells,INTERMEDIATE
same,ACTIVITY_AREA,"OAW42, ovary, adenocarcinoma",29.5
same,AMAX,"OAW42, ovary, adenocarcinoma",1.81
same,RESPONSE,"OAW42, ovary, adenocarcinoma",REFRACTORY
same,ACTIVITY_AREA,OAW42 cells,29.5
same,AMAX,OAW42 cells,1.81
same,RESPONSE,OAW42 cells,REFRACTORY
same,ACTIVITY_AREA,[29],19.97
same,AMAX,[29],-21.14
same,RESPONSE,[29],INTERMEDIATE
same,ACTIVITY_AREA,OC 314 cells,19.97
same,AMAX,OC 314 cells,-21.14
same,RESPONSE,OC 314 cells,INTERMEDIATE
same,ACTIVITY_AREA,"OC 316, ovary, adenocarcinoma",40.59
same,AMAX,"OC 316, ovary, adenocarcinoma",-6.47
same,RESPONSE,"OC 316, ovary, adenocarcinoma",REFRACTORY
same,ACTIVITY_AREA,[30],39.6
same,AMAX,[30],-90.91
same,RESPONSE,[30],INTERMEDIATE
same,ACTIVITY_AREA,OCI-AML2 cells,39.6
same,AMAX,OCI-AML2 cells,-90.91
